Assay results: article doi:10.1101/2021.12.31.474671
These are yes or no findings as the source states them, for the method shown. Some results given as binding are weak or reduced against the parent protein; the word gives no strength.

Amino acid sequences for entries named in this document (tags omitted). Residues count along the entry.
UniProt Q8K2F0, residues 554-640: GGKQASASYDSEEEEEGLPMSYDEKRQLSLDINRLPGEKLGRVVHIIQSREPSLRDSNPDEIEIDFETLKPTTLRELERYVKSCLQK

Target: BRD3 ET domain (extraterminal domain of BRD3, residues 554 to 640) (murine (methods); human (abbreviations)) (UniProt Q8K2F0)
Test: NMR titration

## EFTGSPEIKLKITKTIQNGRELFESSLCGDLLNEVQASE [ET-binding polypeptide segment of NSD3 (Nuclear Receptor Binding SET Domain Protein 3)]
  binding: binds

## SRLTWRVQRSQNPLKIRLTREAP [23-residue C-terminal tail peptide (TP) of MLV integrase (IN)]
  binding: binds
